Data published in paper PMC5011342, “A high throughput drug screening assay to identify compounds that promote oligodendrocyte differentiation using acutely dissociated and purified oligodendrocyte precursor cells” (BMC Research Notes, 2016).

System: expanded OPCs
Description: Having established a consistent assay for measuring OL differentiation in vitro, the next step was to utilize this assay to assess the ability of a wide array of compounds to promote OL differentiation. Prior to library screening, we first established the maximum non-toxic dose of each compound in the library. […] Therefore, we added each compound in the NIH clinical collection (NCC) library to OPCs at 10, 1, and 0.1 µM concentrations. Three days later, we assessed viability of the treated cells by measuring AlamarBlue fluorescence, a measure of cell viability (see “Methods” section). […] Appropriately, we established three sets of screening concentrations for library compounds: non-toxic compounds were tested at 10 and 2 µM, slightly toxic compounds (only toxic at 10 µM) were tested at 2 and 0.4 µM, and very toxic compounds were tested at 0.4 and 0.08 µM.
OPCs were expanded in vitro by seeding into PDL-coated tissue culture flasks at 1000–2000 cells/cm^2 in differentiation media supplemented with 10 ng/ml PDGF-AA. Proliferating OPCs were fed every 2–3 days and supplemented with 2–3× concentration of PDGF as needed to prevent OPC differentiation. After 6–7 days of proliferation, OPCs were harvested by trypsinization, plated into PDL-coated 96-well Falcon plates and centrifuged at 200×g to facilitate cell attachment, survival, and even distribution of cells. Expanded OPCs were seeded in differentiation media at 10,000 cells/well and incubated for 2 h at 37 °C, 10 % CO2 prior to addition of compounds. The NCC library was diluted and added to cells at 10, 1, and 0.1 µM; each concentration was tested in quadruplicate. As a positive control for the induction of toxicity, 5 ng/ml tunicamycin was added to 8 wells in each plate. Three days later, a 1:10 dilution of alamarBlue® (AB) was added to each well and cells were incubated 4 h at 37 °C, 10 % CO2. AB fluorescence was measured using a PerkinElmer Victor II fluorescence microplate reader (PerkinElmer, Waltham, MA) with 560 nm excitation/590 nm emission filters. […]

Compound: Cc1c(C(=O)NN2CCCCC2)nn(-c2ccc(Cl)cc2Cl)c1-c1ccc(I)cc1 [AM 251]
- 0.1 µM (% DMSO): 72.9 % DMSO
- 1 µM (% DMSO): 108.4 % DMSO
- 10 µM (% DMSO): 13.5 % DMSO
